From PMC4284738, “14-3-3 Proteins Participate in Light Signaling through Association with PHYTOCHROME INTERACTING FACTORs” (International Journal of Molecular Sciences, 2014)
These are yes or no findings as the source states them, for the method shown. Some entries that bind do so weakly or less than the wild type. Where a sequence is shown, tags or fusion partners need not be part of it.

Protein sequences, listed by entry. Tags and fused reporters are not part of them.
UniProt Q8L5W7: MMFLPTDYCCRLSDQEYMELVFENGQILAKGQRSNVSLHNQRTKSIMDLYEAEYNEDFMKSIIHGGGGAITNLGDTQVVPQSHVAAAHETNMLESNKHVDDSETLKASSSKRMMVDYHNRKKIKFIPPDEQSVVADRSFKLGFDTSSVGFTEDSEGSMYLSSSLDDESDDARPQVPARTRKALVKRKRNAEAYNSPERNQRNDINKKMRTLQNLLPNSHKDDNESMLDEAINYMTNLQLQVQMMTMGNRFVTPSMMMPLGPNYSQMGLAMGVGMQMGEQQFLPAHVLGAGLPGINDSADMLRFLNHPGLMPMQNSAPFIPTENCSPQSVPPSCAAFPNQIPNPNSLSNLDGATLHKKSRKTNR

Tests used:
[1] = biological target: T1, MBP-LONG HYPOCOTYL IN FAR-RED1 (HFR1) (Arabidopsis thaliana) (UniProt Q9FE22); assay: pull-down; 0.3–20 µg of His-14-3-3κ incubated with MBP or MBP-PIFs in MBP column buffer at 4 °C in dark for 5–6 h, then amylose resin overnight; elution with 10 mM maltose; blot with anti-His and anti-MBP; both purified
T1 sequence: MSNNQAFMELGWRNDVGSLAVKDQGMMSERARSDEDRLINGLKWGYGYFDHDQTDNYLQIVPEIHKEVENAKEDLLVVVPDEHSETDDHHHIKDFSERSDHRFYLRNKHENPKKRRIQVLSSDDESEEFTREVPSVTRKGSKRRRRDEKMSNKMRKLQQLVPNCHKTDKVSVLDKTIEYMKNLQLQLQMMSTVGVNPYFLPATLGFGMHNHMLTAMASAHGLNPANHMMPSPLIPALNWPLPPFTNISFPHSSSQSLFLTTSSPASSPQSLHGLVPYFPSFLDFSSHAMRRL

[2] = biological target: MBP-PIF6 (Arabidopsis thaliana) (UniProt Q8L5W7); assay: as above

binding [1]: no binding | binding [2]: binds
B1: His-tagged 14-3-3κ (natural protein, Arabidopsis thaliana, UniProt P48348 1-248, looked up)
chain: MATTLSRDQYVYMAKLAEQAERYEEMVQFMEQLVSGATPAGELTVEERNLLSVAYKNVIGSLRAAWRIVSSIEQKEESRKNEEHVSLVKDYRSKVETELSSICSGILRLLDSHLIPSATASESKVFYLKMKGDYHRYLAEFKSGDERKTAAEDTMIAYKAAQDVAVADLAPTHPIRLGLALNFSVFYYEILNSSEKACSMAKQAFEEAIAELDTLGEESYKDSTLIMQLLRDNLTLWTSDMQEQMDEA
notes: 14-3-3 kappa isoform, Arabidopsis thaliana; also called HIS-14-3-3κ; His-14-3-3κ
